Results reported in patent US12129241B1, “9-(2-hydroxypyridin-3-yl)-10-(2-hydroxyethyl)-3,3,6,6-tetramethyl-3,4,6,7,9,10-hexahydroacridine1,8(2H,5H)-dione as an antimicrobial compound” (KING FAISAL UNIVERSITY, priority 2023, dated 2024).
At least one structure is not confirmed: it was looked up by name or label, or the drawing left a doubt.

Assays:
Experiment in all cases: Antimicrobial screening by agar dilution
Type in all cases: cell-based
Escherichia coli = details: E. Coli
Description: (§1) The antibacterial properties of the synthesized compound 9-(2-hydroxypyridin-3-yl)-10-(2-hydroxyethyl)-3,3,6,6-tetramethyl-3,4,6,7,9,10-hexahydroacridine1,8(2H,5H)-dione were studied by the method of agar dilution. Test solutions of each compound was prepared in concentration of 1% using dimethylformamide as a solvent then they are diluted in physiological solution to obtain the final experimental dilutions 1:100, 1:200, 1:400, 1:800. The effect of these substances are compared with furacillin in a controllable study. The testing microbes used were gram positive bacteria Staphylococcus aureus, gram negative bacteria Pseudomonas aeruginosa and Escherichia coli and Candida albicans fungus. The experiments used for this survey were meat-pentonlu agar (EPA) for cultivation of bacteria and Saburo environment for the fungus. Each experiment used 1 mL of test solution on each plate […]. Two drops of emulsified with microbes feel were added. All experimental samples were taken from the agar after 10, 20, 40, 60 minutes in the environment on the basis of Patrk planted. The bacteria were cultivated at a temperature of 37° C. for 1 day and the mushroom was kept in a thermostat for […] at a temperature of 28° C. Then results were checked.

Staphylococcus aureus = details: St. Aereus
Description: as §1

Candida albicans = test system: Candida albicans
Description: as §1

Pseudomonas aeruginosa = details: Ps. Aeroqonaza
Description: as §1

[1] = dilution rate 1:100, exposure time 10 min
[2] = dilution rate 1:100, exposure time 20 min
[3] = dilution rate 1:100, exposure time 40 min
[4] = dilution rate 1:100, exposure time 60 min
[5] = dilution rate 1:200, exposure time 10 min
[6] = dilution rate 1:200, exposure time 20 min
[7] = dilution rate 1:200, exposure time 40 min
[8] = dilution rate 1:200, exposure time 60 min
[9] = dilution rate 1:400, exposure time 10 min
[10] = dilution rate 1:400, exposure time 20 min
[11] = dilution rate 1:400, exposure time 40 min
[12] = dilution rate 1:400, exposure time 60 min
[13] = dilution rate 1:800, exposure time 10 min
[14] = dilution rate 1:800, exposure time 20 min
[15] = dilution rate 1:800, exposure time 40 min
[16] = dilution rate 1:800, exposure time 60 min

For `NC(=O)N/N=C/c1ccc([N+](=O)[O-])o1` [Furacilin], the antimicrobial activity (Escherichia coli; [1]) was “−”, the antimicrobial activity (Escherichia coli; [2]) was “−” and the antimicrobial activity (Escherichia coli; [3]) was “−”. The antimicrobial activity (Escherichia coli; [4]) was “−”, the antimicrobial activity (Escherichia coli; [5]) was “+” and the antimicrobial activity (Escherichia coli; [6]) was “+”. The antimicrobial activity (Escherichia coli; [7]) was “+”, the antimicrobial activity (Escherichia coli; [8]) was “+” and the antimicrobial activity (Escherichia coli; [9]) was “+”. For the same compound, the antimicrobial activity (Escherichia coli; [10]) was “+”, the antimicrobial activity (Escherichia coli; [11]) was “+” and the antimicrobial activity (Escherichia coli; [12]) was “+”. For the same compound, the antimicrobial activity (Escherichia coli; [13]) was “+”, the antimicrobial activity (Escherichia coli; [14]) was “+” and the antimicrobial activity (Escherichia coli; [15]) was “+”. For the same compound, the antimicrobial activity (Escherichia coli; [16]) was “+”, the antimicrobial activity (Staphylococcus aureus; [1]) was “−” and the antimicrobial activity (Staphylococcus aureus; [2]) was “−”. For the same compound, the antimicrobial activity (Staphylococcus aureus; [3]) was “−”, the antimicrobial activity (Staphylococcus aureus; [4]) was “−” and the antimicrobial activity (Staphylococcus aureus; [5]) was “+”. The antimicrobial activity (Staphylococcus aureus; [6]) was “+”, the antimicrobial activity (Staphylococcus aureus; [7]) was “+” and the antimicrobial activity (Staphylococcus aureus; [8]) was “+”. For the same compound, the antimicrobial activity (Staphylococcus aureus; [9]) was “+”, the antimicrobial activity (Staphylococcus aureus; [10]) was “+” and the antimicrobial activity (Staphylococcus aureus; [11]) was “+”. The antimicrobial activity (Staphylococcus aureus; [12]) was “+”, the antimicrobial activity (Staphylococcus aureus; [13]) was “+” and the antimicrobial activity (Staphylococcus aureus; [14]) was “+”. The antimicrobial activity (Staphylococcus aureus; [15]) was “+”, the antimicrobial activity (Staphylococcus aureus; [16]) was “+” and the antimicrobial activity (Candida albicans; [1]) was “−”. For the same compound, the antimicrobial activity (Candida albicans; [2]) was “−”, the antimicrobial activity (Candida albicans; [3]) was “+” and the antimicrobial activity (Candida albicans; [4]) was “+”. The antimicrobial activity (Candida albicans; [5]) was “+”, the antimicrobial activity (Candida albicans; [6]) was “+” and the antimicrobial activity (Candida albicans; [7]) was “+”. For the same compound, the antimicrobial activity (Candida albicans; [8]) was “+”, the antimicrobial activity (Candida albicans; [9]) was “+” and the antimicrobial activity (Candida albicans; [10]) was “+”. For the same compound, the antimicrobial activity (Candida albicans; [11]) was “+”, the antimicrobial activity (Candida albicans; [12]) was “+” and the antimicrobial activity (Candida albicans; [13]) was “+”. The antimicrobial activity (Candida albicans; [14]) was “+”, the antimicrobial activity (Candida albicans; [15]) was “+” and the antimicrobial activity (Candida albicans; [16]) was “+”. For the same compound, the antimicrobial activity (Pseudomonas aeruginosa; [1]) was “+”, the antimicrobial activity (Pseudomonas aeruginosa; [2]) was “+” and the antimicrobial activity (Pseudomonas aeruginosa; [3]) was “+”. For the same compound, the antimicrobial activity (Pseudomonas aeruginosa; [4]) was “+”, the antimicrobial activity (Pseudomonas aeruginosa; [5]) was “+” and the antimicrobial activity (Pseudomonas aeruginosa; [6]) was “+”. For the same compound, the antimicrobial activity (Pseudomonas aeruginosa; [7]) was “+”, the antimicrobial activity (Pseudomonas aeruginosa; [8]) was “+” and the antimicrobial activity (Pseudomonas aeruginosa; [9]) was “+”. For the same compound, the antimicrobial activity (Pseudomonas aeruginosa; [10]) was “+”, the antimicrobial activity (Pseudomonas aeruginosa; [11]) was “+” and the antimicrobial activity (Pseudomonas aeruginosa; [12]) was “+”. For the same compound, the antimicrobial activity (Pseudomonas aeruginosa; [13]) was “+”, the antimicrobial activity (Pseudomonas aeruginosa; [14]) was “+” and the antimicrobial activity (Pseudomonas aeruginosa; [15]) was “+”. The antimicrobial activity (Pseudomonas aeruginosa; [16]) was “+”.
